Results deposited as PubChem BioAssay AID743121 (NCATS, 2013)

- Test: 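Genes whose silencing strengthens cell killing by camptothecin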 (primary screen)
- Cell system: MDA-MB-231 cells, a human breast cancer line
- Knock-down reagent: single siRNA against human genes, 20 nM siRNA (0.8 pmol per well)
- Duration: 120 h (drug added 48 h after transfection, read 72 h later)
- Conditions: camptothecin 20 nM (about EC30) for 72 h; vehicle 0.1% DMSO in parallel plates
- Read-out: 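CellTiter-Glo ATP signal, scaled to control siRNA as percent viability; sensitisation given as log2 of untreated divided by camptothecin-treated viability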
- Scale: log2 vehicle/camptothecin viability: higher = stronger sensitisation to camptothecin; viability with camptothecin and viability without drug: higher = more viable cells
- Hit rule: 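Active genes have an RSA gene-level p-value below 0.001, computed from the ratios of their separate siRNAs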
This is an unselected part of about 26,000 reagents. 167 of all reagents (0.63%) count as active. 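Calls are per gene from RSA p-values that are not deposited; an individual active-marked siRNA can sensitise only weakly.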 Reagents against one gene are numbered here.

no.	target	reagent	log2 vehicle/camptothecin viability	viability with camptothecin (% of control)	viability without drug (% of control)	call
1	COL9A2 (collagen type IX alpha 2 chain)	1	-0.111	68.6	63.5	inactive
2	COL9A2 (collagen type IX alpha 2 chain)	2	0.06	99.7	104	inactive
3	COL9A2 (collagen type IX alpha 2 chain)	3	0.693	65.6	106	inactive
4	COL9A2 (collagen type IX alpha 2 chain)	4	-0.314	67.4	54.2	inactive
5	A2M (alpha-2-macroglobulin)	1	-0.0761	27.8	26.3	inactive
6	A2M (alpha-2-macroglobulin)	2	0.129	92.6	101	inactive
7	A2M (alpha-2-macroglobulin)	3	-0.0426	87.1	84.6	inactive
8	A2M (alpha-2-macroglobulin)	4	-0.568	127	85.9	inactive
9	ERCC4 (ERCC excision repair 4, endonuclease catalytic subunit)	1	-0.189	117	102	inactive
10	ERCC4 (ERCC excision repair 4, endonuclease catalytic subunit)	2	-0.0504	103	99.8	inactive
11	ERCC4 (ERCC excision repair 4, endonuclease catalytic subunit)	3	-0.0731	95.8	91.1	inactive
12	ERCC4 (ERCC excision repair 4, endonuclease catalytic subunit)	4	0.188	75.6	86.1	inactive
13	GPR151 (G protein-coupled receptor 151)	1	-0.138	38.9	35.4	inactive
14	GPR151 (G protein-coupled receptor 151)	2	-0.0739	85.6	81.3	inactive
15	GPR151 (G protein-coupled receptor 151)	3	-0.346	102	79.9	inactive
16	GPR151 (G protein-coupled receptor 151)	4	0.096	93.2	99.6	inactive
17	PARD6A (par-6 family cell polarity regulator alpha)	1	-0.258	77.6	64.8	inactive
18	PARD6A (par-6 family cell polarity regulator alpha)	2	-0.123	106	97.5	inactive
19	PARD6A (par-6 family cell polarity regulator alpha)	3	0.0562	95.7	99.5	inactive
20	PARD6A (par-6 family cell polarity regulator alpha)	4	-0.227	85.8	73.4	inactive
21	ADGRF4 (adhesion G protein-coupled receptor F4)	1	0.147	80.2	88.8	inactive
22	ADGRF4 (adhesion G protein-coupled receptor F4)	2	-0.0652	65.9	63	inactive
23	ADGRF4 (adhesion G protein-coupled receptor F4)	3	-0.0545	91.8	88.4	inactive
24	ADGRF4 (adhesion G protein-coupled receptor F4)	4	-0.33	71.8	57.1	inactive
25	ADCY9 (adenylate cyclase 9)	1	-0.262	102	85.1	inactive
26	ADCY9 (adenylate cyclase 9)	2	-0.00221	54.8	54.7	inactive
27	ADCY9 (adenylate cyclase 9)	3	-0.177	105	92.9	inactive
28	ADCY9 (adenylate cyclase 9)	4	-0.266	97.4	81	inactive
29	SEZ6 (seizure related 6 homolog)	1	0.0306	67.9	69.4	inactive
30	SEZ6 (seizure related 6 homolog)	2	0.114	79.7	86.2	inactive
31	SEZ6 (seizure related 6 homolog)	3	-0.267	116	96.3	inactive
32	SEZ6 (seizure related 6 homolog)	4	-0.268	79.6	66.1	inactive
33	ADRB1 (adrenoceptor beta 1)	1	-0.0178	33.6	33.2	inactive
34	ADRB1 (adrenoceptor beta 1)	2	-0.414	108	81.1	inactive
35	ADRB1 (adrenoceptor beta 1)	3	0.0442	64.4	66.4	inactive
36	ADRB1 (adrenoceptor beta 1)	4	-0.773	63.7	37.3	inactive
37	SEMA6D (semaphorin 6D)	1	-0.116	51.2	47.2	inactive
38	SEMA6D (semaphorin 6D)	2	-0.0655	106	101	inactive
39	SEMA6D (semaphorin 6D)	3	-0.0991	64.6	60.3	inactive
40	SEMA6D (semaphorin 6D)	4	0.54	41.1	59.7	inactive
41	VAT1 (vesicle amine transport 1)	1	-0.0997	104	96.8	inactive
42	VAT1 (vesicle amine transport 1)	2	-0.342	83.6	66	inactive
43	VAT1 (vesicle amine transport 1)	3	0.504	36.7	52.1	inactive
44	VAT1 (vesicle amine transport 1)	4	-0.0725	88.7	84.4	inactive
45	TMPRSS4 (transmembrane serine protease 4)	1	0.0972	37.6	40.2	inactive
46	TMPRSS4 (transmembrane serine protease 4)	2	0.425	57	76.5	inactive
47	TMPRSS4 (transmembrane serine protease 4)	3	-0.375	49.8	38.4	inactive
48	TMPRSS4 (transmembrane serine protease 4)	4	-0.0548	51.5	49.6	inactive
49	OGG1 (8-oxoguanine DNA glycosylase)	1	-0.287	56.4	46.2	inactive
50	OGG1 (8-oxoguanine DNA glycosylase)	2	1.08	27.6	58.3	inactive
51	OGG1 (8-oxoguanine DNA glycosylase)	3	-0.0194	74.8	73.8	inactive
52	OGG1 (8-oxoguanine DNA glycosylase)	4	-0.046	104	100	inactive
53	ADCY3 (adenylate cyclase 3)	1	-0.319	47.1	37.8	inactive
54	ADCY3 (adenylate cyclase 3)	2	-0.0795	66.7	63.1	inactive
55	ADCY3 (adenylate cyclase 3)	3	0.364	79.1	102	inactive
56	ADCY3 (adenylate cyclase 3)	4	0.0061	56.5	56.7	inactive
57	RAB11FIP1 (RAB11 family interacting protein 1)	1	-0.0724	43.7	41.6	inactive
58	RAB11FIP1 (RAB11 family interacting protein 1)	2	0.542	58.8	85.7	inactive
59	RAB11FIP1 (RAB11 family interacting protein 1)	3	-0.23	110	94.2	inactive
60	RAB11FIP1 (RAB11 family interacting protein 1)	4	-0.425	74.9	55.8	inactive
61	KPNA6 (karyopherin subunit alpha 6)	1	0.995	38.4	76.6	inactive
62	KPNA6 (karyopherin subunit alpha 6)	2	-0.137	85.3	77.6	inactive
63	KPNA6 (karyopherin subunit alpha 6)	3	-0.686	79.9	49.7	inactive
64	SNAP29 (synaptosome associated protein 29)	1	0.599	46.9	71.1	inactive
65	SNAP29 (synaptosome associated protein 29)	2	-0.283	93.5	76.9	inactive
66	SNAP29 (synaptosome associated protein 29)	3	0.0416	87	89.6	inactive
67	SNAP29 (synaptosome associated protein 29)	4	-0.722	55.1	33.4	inactive
68	MED24 (mediator complex subunit 24)	1	-0.169	89.9	79.9	inactive
69	MED24 (mediator complex subunit 24)	2	-0.158	81.7	73.2	inactive
70	MED24 (mediator complex subunit 24)	3	-0.251	63.1	53.1	inactive
71	MED24 (mediator complex subunit 24)	4	-0.264	97.9	81.5	inactive

6 of these entries, set out differently:
| target | reagent | log2 vehicle/camptothecin viability | viability with camptothecin (% of control) | viability without drug (% of control) | call |
| --- | --- | --- | --- | --- | --- |
| SEMA6D (semaphorin 6D) | 3 | -0.0991 | 64.6 | 60.3 | inactive |
| SEMA6D (semaphorin 6D) | 4 | 0.54 | 41.1 | 59.7 | inactive |
| VAT1 (vesicle amine transport 1) | 1 | -0.0997 | 104 | 96.8 | inactive |
| VAT1 (vesicle amine transport 1) | 2 | -0.342 | 83.6 | 66 | inactive |
| VAT1 (vesicle amine transport 1) | 3 | 0.504 | 36.7 | 52.1 | inactive |
| VAT1 (vesicle amine transport 1) | 4 | -0.0725 | 88.7 | 84.4 | inactive |
